Measurements as given in US7973036B2, “2-methyl-5-imino-benzo[D][1 ,3]oxazin[5-B]pyrazole compound, preparation and use thereof” (Qingdao Huanghai Pharmaceutical Co., Ltd, priority 2008, dated 2011).

Experiment: Anti-DPPH free radical test (spectrophotometry at 517 nm)
Format: biochemical
Settings: DPPH 5.080 mg/100 ml; for Absorption value of reaction liquid (A): 30 min, 517 nm; for Reaction liquid absorption value: Compound 1, 2 0.61 mg/100 ml, Compound 3 0.64 mg/100 ml
Description: Anti-DPPH Free Radical Test
2,2-diphenyl-1-picrylhydrazyl (DPPH) free radical spectrophotometry is a simple method for screening antioxidants, the principle of which is using the characteristic absorption peak of DPPH solution at 517 nm. When free radical scavengers existed, single electron pairing between free radical scavenger and DPPH allowed the absorption of DPPH disappeared, and its decoloring degree and accepted electron number present as quantitative relation, and the antioxidant activity of samples can be evaluated through the amount of cleared DPPH, so the spectrophotometry can be used for quantitative analysis.
DPPH was accurately weighed and placed in a volumetric flask, and diluted to 100 ml with 95% ethanol. The absorbance (A) of DPPH was measured at 517 nm.
DPPH standard curve was shown in FIG. 1, the linear equation of which was as follows: y=0.219x−0.0285; r=0.9994.
DPPH was accurately weighed and placed in a 100 ml volumetric flask, and diluted to 100 ml with 95% ethanol to produce the DPPH solution.
Preparation of Test Drug Solution: the Test Drug was Accurately Weighed and Placed in a 100 ml volumetric flask, dissolved with 20 ml of 95% ethanol, adjusted to pH 7.5 and diluted to 100 ml with 95% ethanol.
5.0 ml of DPPH solution and 2.0 ml test drug solution were taken and placed in a 10 ml volumetric flask, fully shaken at room temperature for a certain time followed by determination of absorption value (A) at 517 nm.
Formula for calculating DPPH free radical scavenging ability of test drug, E (mgDPPH/mg):
Formula for calculating DPPH free radical scavenging ability of test drug, V (mmolDPPH/mmol): […]

[1] = test drug C 0.152 (Edaravone), 0.153 (Compound 1, 2), 0.159 (Compound 3) mg/100 ml
[2] = test drug C 0.304 (Edaravone), 0.305 (Compound 1, 2), 0.318 (Compound 3) mg/100 ml
[3] = test drug C 0.608 (Edaravone), 0.610 (Compound 1, 2), 0.635 (Compound 3) mg/100 ml
[4] = test drug C 1.215 (Edaravone), 1.220 (Compound 1, 2), 1.270 (Compound 3) mg/100 ml
[5] = test drug C 2.430 (Edaravone), 2.440 (Compound 1, 2), 2.540 (Compound 3) mg/100 ml

Row | Compound | Absorption value of reaction liquid (A) [1] | Absorption value of reaction liquid (A) [2] | Absorption value of reaction liquid (A) [3] | Absorption value of reaction liquid (A) [4] | Absorption value of reaction liquid (A) [5] | Reaction liquid absorption value (reaction time 30 min) | Reaction liquid absorption value (reaction time 60 min) | Reaction liquid absorption value (reaction time 90 min) | Reaction liquid absorption value (reaction time 120 min) | Reaction liquid absorption value (reaction time 150 min)
1 | 2-methyl-benzo[d][1,3]oxazin[5-b]pyrazole-5-one [Compound 1] | 0.744 | 0.732 | 0.712 | 0.589 | 0.486 | 0.712 | 0.701 | 0.678 | 0.654 | 0.641
2 | Cc1cc(=O)n(-c2ccccc2C#N)[nH]1 [Compound 3, 1-(2-cyanophenyl)-3-methylpyrazol-5-one] | 0.729 | 0.695 | 0.650 | 0.440 | 0.052 | 0.650 | 0.648 | 0.646 | 0.647 | 0.645
3 | CC1=NN(c2ccccc2)C(=O)C1 [Edaravone, edaravone, reference compound] | 0.728 | 0.699 | 0.633 | 0.397 | 0.115 |  |  |  |  | 
4 | Cc1cc2oc(=N)c3ccccc3n2n1 [TR, 2-methyl-5-imino-benzo[d][1,3]oxazin[5-b]pyrazole] | 0.756 | 0.753 | 0.748 | 0.717 | 0.692 | 0.748 | 0.735 | 0.720 | 0.705 | 0.693
